Values from PubChem BioAssay AID1259424 (University of Nebraska Medical Center, 2018).
Purpose: 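Find knockdowns that reproduce the expression shifts seen after KSR1 loss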 (primary screen). Cells: human HCT116 colon cancer cells. Reagents: siRNA pool against human genes, 50 nM. Measurement: 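Six signature mRNAs by branched-DNA multiplex assay, scaled to two housekeeping genes and non-targeting median, log2; matched to mean KSR1 knockdown profile by Pearson correlation and euclidean distance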. Reading the numbers: mean correlation with KSR1 profile: higher = expression change more like KSR1 knockdown; mean distance from KSR1 profile: higher = expression change less like KSR1 knockdown.
Shown is one part, drawn at random, of about 14,000 reagents. 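Higher correlation or smaller distance means closer resemblance to KSR1 loss; control wells, including KSR1 knockdowns, recur on many plates.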 Not all columns of the deposit are shown. Not given: the time to read-out.

no.	target gene	mean correlation with KSR1 profile	mean distance from KSR1 profile
1	CC2D1A (coiled-coil and C2 domain containing 1A)	-0.149	6.41
2	TPST2 (tyrosylprotein sulfotransferase 2)	-0.488	2.57
3	MVK (mevalonate kinase)	0.805	0.904
4	PDCD2 (programmed cell death 2)	-0.423	3.54
5	GIMAP6 (GTPase, IMAP family member 6)	0.862	2.3
6	PCDHGA9 (protocadherin gamma subfamily A, 9)	-0.816	2.45
7	CD247 (CD247 molecule)	-0.24	2.44
8	TRMT10C (tRNA methyltransferase 10C, mitochondrial RNase P subunit)	-0.541	1.96
9	ASIP (agouti signaling protein)	-0.73	2.39
10	HOXB2 (homeobox B2)	0.127	2.83
11	EXTL1 (exostosin like glycosyltransferase 1)	-0.065	2.66
12	SLITRK5 (SLIT and NTRK like family member 5)	-0.356	2.54
13	HSPA6 (heat shock protein family A (Hsp70) member 6)	0.0988	1.99
14	PA2G4 (proliferation-associated 2G4)	-0.0323	1.81
15	SPNS1 (SPNS lysolipid transporter 1, lysophospholipid)	0.814	1.4
16	LRRC37A (leucine rich repeat containing 37A)	0.00665	2.6
17	NIT2 (nitrilase family member 2)	0.131	2.4
18	LIN28A (lin-28 RNA binding posttranscriptional regulator A)	0.362	2.12
19	EFHD2 (EF-hand domain family member D2)	0.266	2.88
20	SLC19A4P	-0.292	1.69
21	DRC8 (dynein regulatory complex subunit 8)	0.399	1.81
22	RGSL1 (regulator of G protein signaling like 1)	0.578	1.61
23	TCF20 (transcription factor 20)	0.601	1.72
24	YBX2 (Y-box binding protein 2)	-0.118	2.47
25	VIP (vasoactive intestinal peptide)	0.917	0.955
26	GRB10 (growth factor receptor bound protein 10)	0.314	1.73
27	TRIM35 (tripartite motif containing 35)	-0.061	1.21
28	WAPL (WAPL cohesin release factor)	-0.324	2.29
29	TMEM43 (transmembrane protein 43)	0.733	1.43
30	HMBS (hydroxymethylbilane synthase)	-0.184	1.85
31	CRISPLD1 (cysteine rich secretory protein LCCL domain containing 1)	0.604	2.19
32	LINC00158 (long independently transcribed non-coding RNA 158)	-0.331	1.58
33	PACC1 (proton activated chloride channel 1)	-0.177	1.67
34	SH2D2A (SH2 domain containing 2A)	0.343	2.65
35	CLCN7 (Cl-/H+ antiporter 7)	-0.365	3
36	KIAA1143	-0.042	1.29
37	CSDC2 (cold shock domain containing C2)	0.247	3.92
38	ZIC1 (Zic family zinc finger 1)	0.198	2.3
39	PRH2 (proline rich protein HaeIII subfamily 2)	0.644	1.09
40	CD40LG (CD40 ligand)	-0.43	1.53
41	ANKMY1 (ankyrin repeat and MYND domain containing 1)	0.0157	1.45
42	AK7 (adenylate kinase 7)	-0.0675	2.48
43	ZNF226 (zinc finger protein 226)	-0.54	3.99
44	CDK2AP2 (cyclin dependent kinase 2 associated protein 2)	-0.347	4.37
45	SNAI1 (snail family transcriptional repressor 1)	0.199	2.2
46	C1QC (complement C1q C chain)	-0.169	2.22
47	ANXA5 (annexin A5)	0.405	1.52
48	ZNF200 (zinc finger protein 200)	0.22	1.9
49	S1PR5 (sphingosine-1-phosphate receptor 5)	0.782	1.73
50	MYH10 (myosin heavy chain 10)	0.262	0.996
